Earlier results as cited in PMC12951568, “Identifying Structural Factors Governing the Photodynamic Activity of Phthalocyanines” (Journal of Medicinal Chemistry, 2026).

Test system: HeLa cells
Design: method as in number not printed in Table 2; key: Ly, lysosomes; Me, membrane; Mi, mitochondria
Conditions: 12 h incubation; determined previously at the same workplace and published; ref number not given; cited from earlier work

SMILES	Subcellular localization (HeLa)
Cc1cc(Cn2cc[n+](C)c2)c(Oc2cc3c(cc2Oc2c(Cn4cc[n+](C)c4)cc(C)cc2Cn2cc[n+](C)c2)C2=Nc4c5ccccc5c5[n]4[Zn][n]4c(c6ccccc6c4=NC3=N2)=NC2=NC(=N5)c3ccccc32)c(Cn2cc[n+](C)c2)c1.[I-].[I-].[I-].[I-] [C3Zn]	Ly, Me
CC[N+](CC)(CC)CCSc1ccc(SCC[N+](CC)(CC)CC)c2c1C1=NC2=Nc2c3c(SCC[N+](CC)(CC)CC)ccc(SCC[N+](CC)(CC)CC)c3c3[n]2[Zn][n]2c(c4c(SCC[N+](CC)(CC)CC)ccc(SCC[N+](CC)(CC)CC)c4c2=NC2=NC(=N3)c3c(SCC[N+](CC)(CC)CC)ccc(SCC[N+](CC)(CC)CC)c32)=N1.[I-].[I-].[I-].[I-].[I-].[I-].[I-].[I-] [C9Zn]	Ly
Cc1cc(Cn2c[n+](C)cn2)c(Oc2cc3c(cc2Oc2c(Cn4c[n+](C)cn4)cc(C)cc2Cn2c[n+](C)cn2)C2=Nc4c5cc(Oc6c(Cn7c[n+](C)cn7)cc(C)cc6Cn6c[n+](C)cn6)c(Oc6c(Cn7c[n+](C)cn7)cc(C)cc6Cn6c[n+](C)cn6)cc5c5[n]4[Zn][n]4c(c6cc(Oc7c(Cn8c[n+](C)cn8)cc(C)cc7Cn7c[n+](C)cn7)c(Oc7c(Cn8c[n+](C)cn8)cc(C)cc7Cn7c[n+](C)cn7)cc6c4=NC4=NC(=N5)c5cc(Oc6c(Cn7c[n+](C)cn7)cc(C)cc6Cn6c[n+](C)cn6)c(Oc6c(Cn7c[n+](C)cn7)cc(C)cc6Cn6c[n+](C)cn6)cc54)=NC3=N2)c(Cn2c[n+](C)cn2)c1.[I-].[I-].[I-].[I-].[I-].[I-].[I-].[I-].[I-].[I-].[I-].[I-].[I-].[I-].[I-].[I-] [C13Zn]	Ly
Cc1cc(Cn2cc[n+](C)c2)c(Oc2c3c(c(C)c(C)[n+]2C)C2=NC3=Nc3c4cc(SC(C)(C)C)c(SC(C)(C)C)cc4c4[n]3[Zn][n]3c(c5cc(SC(C)(C)C)c(SC(C)(C)C)cc5c3=N2)=NC2=NC(=N4)c3cc(SC(C)(C)C)c(SC(C)(C)C)cc32)c(Cn2cc[n+](C)c2)c1.[I-].[I-].[I-] [C2Zn]	Ly, Me
Cc1cc(Cn2cc[n+](C)c2)c(Oc2cc3c(cc2Oc2c(Cn4cc[n+](C)c4)cc(C)cc2Cn2cc[n+](C)c2)C2=Nc4c5cc(Oc6c(Cn7cc[n+](C)c7)cc(C)cc6Cn6cc[n+](C)c6)c(Oc6c(Cn7cc[n+](C)c7)cc(C)cc6Cn6cc[n+](C)c6)cc5c5[n]4[Zn][n]4c(c6cc(Oc7c(Cn8cc[n+](C)c8)cc(C)cc7Cn7cc[n+](C)c7)c(Oc7c(Cn8cc[n+](C)c8)cc(C)cc7Cn7cc[n+](C)c7)cc6c4=NC4=NC(=N5)c5cc(Oc6c(Cn7cc[n+](C)c7)cc(C)cc6Cn6cc[n+](C)c6)c(Oc6c(Cn7cc[n+](C)c7)cc(C)cc6Cn6cc[n+](C)c6)cc54)=NC3=N2)c(Cn2cc[n+](C)c2)c1.[I-].[I-].[I-].[I-].[I-].[I-].[I-].[I-].[I-].[I-].[I-].[I-].[I-].[I-].[I-].[I-] [C12Zn]	Ly
CSc1cc2c(cc1SC)C1=Nc3c4cc(SC)c(SC)cc4c4[n]3[Zn][n]3c(c5cc(SC)c(SC)cc5c3=NC2=N1)=NC1=NC(=N4)c2cc(Oc3c(Cn4cc[n+](C)c4)cc(C)cc3Cn3cc[n+](C)c3)c(Oc3c(Cn4cc[n+](C)c4)cc(C)cc3Cn3cc[n+](C)c3)cc21.[I-].[I-].[I-].[I-] [C4Zn]	Ly, Me
Cc1cc(Cn2cc[n+](C)c2)c(Oc2c3c(c(C)c(C)[n+]2C)C2=Nc4c5c(Oc6c(Cn7cc[n+](C)c7)cc(C)cc6Cn6cc[n+](C)c6)[n+](C)c(C)c(C)c5c5[n]4[Zn][n]4c(c6c(C)c(C)[n+](C)c(Oc7c(Cn8cc[n+](C)c8)cc(C)cc7Cn7cc[n+](C)c7)c6c4=NC4=NC(=N5)c5c4c(C)c(C)[n+](C)c5Oc4c(Cn5cc[n+](C)c5)cc(C)cc4Cn4cc[n+](C)c4)=NC3=N2)c(Cn2cc[n+](C)c2)c1.[I-].[I-].[I-].[I-].[I-].[I-].[I-].[I-].[I-].[I-].[I-].[I-] [C11Zn]	Ly
